# Results published in PubChem BioAssay AID504834 (National Center for Advancing Translational Sciences (NCATS), 2011).
# The campaign covered roughly 320,000 compounds. About 22,000 (6.9%) were called active. Inconclusive means that the source gave no clear call. Such entries were picked first, then a sample of the others. The call rests on the fitted dose curve; in most records, active means well fitted inhibition curve with a large enough effect; inconclusive means small, poorly fitted or top-dose-only effect, or another doubt; inactive means no such curve, though single readings can be large or run the other way. Potencies of inconclusive entries are doubtful fits and often do not repeat.
# Assay: Primary qHTS for delayed death inhibitors of the malarial parasite plastid, 96 hour incubation
# Settings: P. falciparum luciferase reporter growth; series mostly up to 28.7 µM; activity change, negative = inhibition: at the top concentration
# Outline: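 Infected RBCs, 2% Hct / 0.05% parasitemia final; luciferase-reporter P. falciparum; cpd 96 h, 37 C, 5% CO2; luciferase detection reagent; luminescence.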
# On the % scale 0 is the no-effect control and ±100 the full control effect; potency means the concentration at half of the fitted maximal effect.
SMILES,Potency,"activity change, negative = inhibition"
COc1ccc(-c2cc(C(F)(F)F)nc(SCC(=O)N(C)Cc3cnn(C)c3C)n2)cc1OC,"inconclusive: 0.329 µM [inhibitor, partial curve, poor fit]",
CC(NC(=O)C(C)(C)C)C(c1cccs1)N1CCOCC1 (configuration not stated),,inactive: -24.7%
CCOCc1c(C(=O)Nc2ccc3nc(N4CCOCC4)sc3c2)oc2ccccc12,"inconclusive: 18.5 µM [inhibitor, single point]",
COc1cccc(NC(=O)CN(C)C(=O)c2cc(S(=O)(=O)N3CCCCC3)ccc2Cl)c1,"inconclusive: 18.5 µM [inhibitor, single point]",
CCCNC(=O)N1[C@H]2CC[C@@H]1C(C(=O)OC)=C(c1cccc(Cl)c1)C2,"inconclusive: 13.1 µM [inhibitor, single point]",
COc1cc(OC)c(NC(=O)C2CCCN2C(=O)OCc2ccccc2)cc1Cl (configuration not stated),,inactive: -25.4%
O=[N+]([O-])c1ccc(N2CCN(CC(O)COc3ccccc3)CC2)cc1 (configuration not stated),,inactive: 17.6%
COc1ccc(-c2csc3nc(-c4ccccc4)oc(=O)c23)cc1OC,"inconclusive: 13.1 µM [inhibitor, single point]",
CCOC(=O)c1ccc(NC(=O)c2nc[nH]c2C(=O)NCCCNC(=O)c2[nH]cnc2C(=O)Nc2ccc(C(=O)OCC)cc2)cc1,"inconclusive: 16.5 µM [inhibitor, single point]",
CC1C(=O)N2CCCc3cc(NS(=O)(=O)c4ccccc4)cc1c32 (configuration not stated),"inconclusive: 1.47 µM [inhibitor, full curve, poor fit]",
CC(=O)Nc1cccc(Nc2nc(-c3ccccc3)nc3ccccc23)c1,"inconclusive: 9.28 µM [inhibitor, partial curve, poor fit]",
O=C(Cc1ccccc1)NCCS(=O)c1ccc(Cl)cc1 (configuration not stated),,inactive: 41.7%
CN1CCC(=NNC(=O)c2ccc(N(Cc3ccccc3Cl)S(C)(=O)=O)cc2)CC1,"inconclusive: 11.7 µM [inhibitor, partial curve]",
Cc1cccc(C2NC(=O)c3ccccc3O2)c1 (configuration not stated),"inconclusive: 16.5 µM [inhibitor, single point]",
CCN(CC)C(=O)Cn1c(=O)n(Cc2ccc(F)cc2)c(=O)c2sccc21,"inconclusive: 14.7 µM [inhibitor, partial curve, poor fit]",
CC(C)N(Cc1nccn1C)C(=O)CC1C(=O)NCCN1Cc1ccc(F)cc1 (configuration not stated),active: 13.1 µM,
O=C(NCCCN1CCN(CCCNC(=O)c2cc([N+](=O)[O-])ccc2Cl)CC1)c1cc([N+](=O)[O-])ccc1Cl,"inconclusive: 4.65 µM [inhibitor, partial curve]",
CCCOc1ccccc1/C=N/Nc1ccnc(=O)[nH]1,,inactive: -25.4%
OC1(c2cccs2)CN(c2ccc(Cl)cc2)C2=[N+]1CCCS2 (configuration not stated),"inconclusive: 14.7 µM [inhibitor, single point]",
Cc1cc(C)cc(NS(=O)(=O)c2ccc3oc(=O)ccc3c2)c1,"inconclusive: 9.28 µM [inhibitor, partial curve, poor fit]",
CCOCCCN1C(=O)C2C(C(=O)Nc3ccc(OCC)cc3)C3C=CC2(O3)C1C(=O)NC1CCCCC1 (configuration not stated),"inconclusive: 11.7 µM [inhibitor, single point]",
COC(=O)c1ccccc1NC(=O)CN1CCN(C23CC4CC(CC(C4)C2)C3)CC1,"inconclusive: 18.5 µM [inhibitor, single point]",
Cc1nc(N2CCOCC2)[nH]c(=O)c1C(O)C(Cl)(Cl)Cl (configuration not stated),,inactive: 37.9%
CCc1nc2ccc(C(=O)N3CCN(c4cccc(C(F)(F)F)c4)CC3)cc2nc1CC,"inconclusive: 18.5 µM [inhibitor, single point]",

# In the list so far, these contain a nitro group on carbon:
SMILES,Potency,"activity change, negative = inhibition"
O=[N+]([O-])c1ccc(N2CCN(CC(O)COc3ccccc3)CC2)cc1 (configuration not stated),,inactive: 17.6%
O=C(NCCCN1CCN(CCCNC(=O)c2cc([N+](=O)[O-])ccc2Cl)CC1)c1cc([N+](=O)[O-])ccc1Cl,"inconclusive: 4.65 µM [inhibitor, partial curve]",

# (listing goes on)

SMILES,Potency,"activity change, negative = inhibition"
Cn1c(Cc2cccs2)nnc1SCc1nc2ccccc2[nH]1,,inactive: 8.76%
COc1ccc(NS(=O)(=O)c2ccc(NC(=O)C3CCCO3)cc2)cc1 (configuration not stated),"inconclusive: 5.86 µM [inhibitor, single point]",
CC(C)N(Cc1ccccc1)C(=S)NC1CCCCC1,"inconclusive: 11.7 µM [inhibitor, single point]",
O=C(CCCc1ccccc1)Nc1cccnc1Cl,,inactive: 40.9%
CC(=O)c1c(C)[nH]c(C(=O)Nc2ccc(Cl)c(S(=O)(=O)N(C)C)c2)c1C,"inconclusive: 11.7 µM [inhibitor, single point]",
CCc1ccc(OCC(=O)Nc2ccc(S(=O)(=O)Nc3ccccn3)cc2)cc1,,inactive: -9%
Cc1cccc(/C=N/n2c(C)cc(C)c(C#N)c2=O)c1,"inconclusive: 18.5 µM [inhibitor, single point]",
CCOc1ccc(C2OC(=O)Cc3cc(OC)c(OC)cc32)cc1 (configuration not stated),active: 1.17 µM,
COc1ccc(S(=O)(=O)N2CCCC2)cc1C(=O)O,,inactive: 0%
O=C(CCl)Nc1c2c(nn1-c1ccccc1)CSC2,active: 2.94 µM,
S=C1NNC2(NN1)C1CC3CC(C1)CC2C3,,inactive: -14%
COc1ccc(S(=O)(=O)N2CCOC2CNC(=O)C(=O)NCc2ccccc2OC)cc1 (configuration not stated),"inconclusive: 10.4 µM [inhibitor, single point]",
Cc1nn(CC(=O)N2N=C(C(F)F)CC2(O)C(F)F)c(C)c1[N+](=O)[O-] (configuration not stated),,inactive: -7.76%
CN(C)S(=O)(=O)c1ccc(C(=O)NCc2ccc3[nH]c4c(c3c2)CCCC4)cc1,"inconclusive: 13.1 µM [inhibitor, partial curve, poor fit]",
CCN(CC)CCNC(=O)c1ccc(NC(=O)c2ccc(C(=O)c3ccccc3)cc2)cc1,active: 10.4 µM,
CCOC(=O)C(=O)N1CCC(C(=O)OCC)CC1,,inactive: 13.7%
CCOc1cc(N2CCOCC2)c(OCC)cc1NC(=O)COC(=O)c1cc(C)oc1C,,inactive: -29.6%
O=C(NCC1CCCO1)c1ccc2c(c1)C(=O)N(C1CCCCC1)C2=O (configuration not stated),"inconclusive: 11.7 µM [inhibitor, single point]",
Cc1cc2[nH]c(=O)c(=O)[nH]c2cc1S(=O)(=O)NC1CCC(C)CC1 (configuration not stated),,inactive: 0%
Cc1cccc(NC(=O)CSc2nc3ccccc3nc2N2CCCCC2)c1,"inconclusive: 8.28 µM [inhibitor, partial curve]",
Cc1ccc(CSCC(=O)NCc2cccs2)cc1,,inactive: 15.5%
C=CCNC(=S)NNC(=O)CC12CC3CC(CC(C3)C1)C2,"inconclusive: 20.8 µM [inhibitor, partial curve, poor fit]",
CN1CCN(C(=O)c2ccc3c(c2)N(Cc2ccc(Cl)cc2)C(=O)c2ccccc2S3=O)CC1 (configuration not stated),,inactive: -18.6%
COc1ccccc1C(c1nnnn1C(C)(C)C)N1CCCc2ccccc21 (configuration not stated),"inconclusive: 1.85 µM [inhibitor, full curve]",

SMILES,Potency,"activity change, negative = inhibition"
Cc1ccc2cc(C)c3nnc(SCC(=O)N4CCCc5ccccc54)n3c2c1C,active: 5.22 µM,
Cc1ccc(CN2C(=O)CCC2C(=O)NCc2ccccc2Cl)cc1 (configuration not stated),"inconclusive: 9.28 µM [inhibitor, single point]",
COCc1nc2ccccc2n1Cc1ccccc1C,"inconclusive: 18.5 µM [inhibitor, single point]",
CCS(=O)(=O)C1=NSC2=NC(=O)/C(=C\c3ccc(OC(=O)c4ccco4)cc3)C(=N)N21,,inactive: 10.7%
Cc1ccccc1OCC(=O)NCCC1=CCCCC1,"inconclusive: 0.0029 µM [inhibitor, full curve, poor fit]",
CC(C)[C@H](NC(N)=O)C(=O)Nc1cccc([N+](=O)[O-])c1,,inactive: 23%
C[C@@H]1CN(C2CCN(Cc3nc(CC4CC4)no3)CC2)C[C@H](C)O1,"inconclusive: 8.28 µM [inhibitor, single point]",
O=C(Nc1c2c(nn1-c1ccc(F)cc1)CS(=O)(=O)C2)c1ccc2c(c1)OCO2,"inconclusive: 1.65 µM [inhibitor, partial curve, poor fit]",
Cc1ccc(S(=O)(=O)CCC(=O)Nc2cccc(C)c2)cc1,,inactive: -12.4%
CCOc1ccc(Nc2nc(N)nc(CSC(=S)N3CCN(c4ccccc4)CC3)n2)cc1,active: 13.1 µM,
COc1ccccc1CNC(=O)CSc1nn2c(=O)c(C(C)(C)C)nnc2s1,"inconclusive: 16.5 µM [inhibitor, partial curve, poor fit]",
O=C(CSc1nnc(CNc2ccc(Cl)cc2)n1Cc1ccccc1)NCc1ccco1,"inconclusive: 18.5 µM [inhibitor, single point]",
COc1ccc(-n2c(SCC(=O)Nc3nccs3)nnc2-c2ccoc2C)cc1,"inconclusive: 14.7 µM [inhibitor, partial curve, poor fit]",
Cc1cc(C)c2oc(=O)cc(CN3CCC(C)CC3)c2c1,"inconclusive: 4.65 µM [inhibitor, partial curve, poor fit]",
CS(=O)(=O)N(CC(=O)NCC1CCCO1)c1ccc(Cl)c(Cl)c1 (configuration not stated),,inactive: -28.9%
COCCCNCCCCOc1ccc(OCc2ccccc2)cc1,,inactive: -4.45%
COc1cccc(NC(=O)Nc2ccccc2SC)c1,,inactive: 3.5%
FC(F)(F)c1cc(-c2ccco2)nc(N2CCN(Cc3ccccc3)CC2)n1,"inconclusive: 11.7 µM [inhibitor, single point]",
O=C(COC(=O)c1cc([N+](=O)[O-])ccc1N1CCCC1)Nc1ccccc1OC(F)F,"inconclusive: 18.5 µM [inhibitor, single point]",
O=C(CCc1ccccc1)NNC(=O)c1cc(Cl)ccc1O,"inconclusive: 18.5 µM [inhibitor, single point]",
CC(=O)Nc1ccc(C(=O)NC2CCSc3ccccc32)cc1 (configuration not stated),,inactive: 9.71%
Cc1ccc(-n2c(SCC(=O)Nc3cc(S(=O)(=O)N4CCOCC4)ccc3Cl)nc3ccccc3c2=O)cc1,active: 2.94 µM,
C[C@]12CCC(=O)C=C1CC[C@@H]1[C@@H]2[C@@H](O)C[C@]2(C=O)[C@@H](C(=O)CO)CC[C@@H]12,,inactive: 28.1%
